Reference: paper PMC9558416
These are yes or no findings as the source states them, for the method shown. In cells and extracts the contact can be indirect. Here binding means that the protein was enriched with, or labelled near, the bait; the list need not be complete. Where a sequence is shown, tags or fusion partners need not be part of it.

Amino acid sequences for entries named in this document (tags omitted).
UniProt P07355: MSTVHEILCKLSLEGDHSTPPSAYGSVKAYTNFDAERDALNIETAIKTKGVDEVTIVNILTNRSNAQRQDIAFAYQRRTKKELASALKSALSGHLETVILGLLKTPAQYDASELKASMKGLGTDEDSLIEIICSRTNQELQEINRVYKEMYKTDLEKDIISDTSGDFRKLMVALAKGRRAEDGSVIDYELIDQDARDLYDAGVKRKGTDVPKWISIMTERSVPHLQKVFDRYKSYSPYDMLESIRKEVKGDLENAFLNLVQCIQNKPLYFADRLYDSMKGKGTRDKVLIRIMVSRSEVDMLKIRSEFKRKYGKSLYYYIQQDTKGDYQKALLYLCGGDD

Biological target: T1, FLAG-RalA (UniProt P11233)
T1 sequence: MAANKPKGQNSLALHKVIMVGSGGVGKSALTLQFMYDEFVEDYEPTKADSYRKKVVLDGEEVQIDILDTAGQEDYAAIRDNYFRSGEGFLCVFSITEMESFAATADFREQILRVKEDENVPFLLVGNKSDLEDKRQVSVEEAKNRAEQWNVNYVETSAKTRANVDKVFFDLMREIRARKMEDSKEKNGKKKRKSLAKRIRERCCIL
Assay: affinity purification with mass spectrometry; total cell protein incubated with the antibody for FLAG 12 h at 4 °C, protein A/G magnetic beads 1 h at room temperature; eluate to LC-MS/MS; proteins only identified in the FLAG-RalA group

Annexin A2 (ANXA2), endogenous (from UniProt P07355 1-339)
binding: binds
